Paper PMC7453011
These are yes or no findings as the source states them, for the method shown. Binding seen in cells or lysates may run through a third protein. Some binding calls cover weakened binding; strength is not graded here.

Sequences of proteins named here, by UniProt entry; tags and fusion partners are left off.
UniProt Q13547: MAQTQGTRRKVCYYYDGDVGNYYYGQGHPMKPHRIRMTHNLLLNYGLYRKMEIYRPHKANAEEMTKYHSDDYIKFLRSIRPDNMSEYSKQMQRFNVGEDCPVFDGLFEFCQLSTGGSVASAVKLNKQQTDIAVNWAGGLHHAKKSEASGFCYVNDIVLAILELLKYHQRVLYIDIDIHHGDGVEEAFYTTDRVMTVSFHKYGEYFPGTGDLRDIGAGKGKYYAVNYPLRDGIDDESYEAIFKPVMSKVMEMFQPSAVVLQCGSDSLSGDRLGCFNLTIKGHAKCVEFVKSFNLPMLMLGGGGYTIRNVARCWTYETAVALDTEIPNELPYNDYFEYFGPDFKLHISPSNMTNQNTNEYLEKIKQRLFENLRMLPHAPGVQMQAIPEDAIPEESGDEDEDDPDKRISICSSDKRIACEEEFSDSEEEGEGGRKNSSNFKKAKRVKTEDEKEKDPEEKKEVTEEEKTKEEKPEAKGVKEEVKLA
UniProt Q3URK3: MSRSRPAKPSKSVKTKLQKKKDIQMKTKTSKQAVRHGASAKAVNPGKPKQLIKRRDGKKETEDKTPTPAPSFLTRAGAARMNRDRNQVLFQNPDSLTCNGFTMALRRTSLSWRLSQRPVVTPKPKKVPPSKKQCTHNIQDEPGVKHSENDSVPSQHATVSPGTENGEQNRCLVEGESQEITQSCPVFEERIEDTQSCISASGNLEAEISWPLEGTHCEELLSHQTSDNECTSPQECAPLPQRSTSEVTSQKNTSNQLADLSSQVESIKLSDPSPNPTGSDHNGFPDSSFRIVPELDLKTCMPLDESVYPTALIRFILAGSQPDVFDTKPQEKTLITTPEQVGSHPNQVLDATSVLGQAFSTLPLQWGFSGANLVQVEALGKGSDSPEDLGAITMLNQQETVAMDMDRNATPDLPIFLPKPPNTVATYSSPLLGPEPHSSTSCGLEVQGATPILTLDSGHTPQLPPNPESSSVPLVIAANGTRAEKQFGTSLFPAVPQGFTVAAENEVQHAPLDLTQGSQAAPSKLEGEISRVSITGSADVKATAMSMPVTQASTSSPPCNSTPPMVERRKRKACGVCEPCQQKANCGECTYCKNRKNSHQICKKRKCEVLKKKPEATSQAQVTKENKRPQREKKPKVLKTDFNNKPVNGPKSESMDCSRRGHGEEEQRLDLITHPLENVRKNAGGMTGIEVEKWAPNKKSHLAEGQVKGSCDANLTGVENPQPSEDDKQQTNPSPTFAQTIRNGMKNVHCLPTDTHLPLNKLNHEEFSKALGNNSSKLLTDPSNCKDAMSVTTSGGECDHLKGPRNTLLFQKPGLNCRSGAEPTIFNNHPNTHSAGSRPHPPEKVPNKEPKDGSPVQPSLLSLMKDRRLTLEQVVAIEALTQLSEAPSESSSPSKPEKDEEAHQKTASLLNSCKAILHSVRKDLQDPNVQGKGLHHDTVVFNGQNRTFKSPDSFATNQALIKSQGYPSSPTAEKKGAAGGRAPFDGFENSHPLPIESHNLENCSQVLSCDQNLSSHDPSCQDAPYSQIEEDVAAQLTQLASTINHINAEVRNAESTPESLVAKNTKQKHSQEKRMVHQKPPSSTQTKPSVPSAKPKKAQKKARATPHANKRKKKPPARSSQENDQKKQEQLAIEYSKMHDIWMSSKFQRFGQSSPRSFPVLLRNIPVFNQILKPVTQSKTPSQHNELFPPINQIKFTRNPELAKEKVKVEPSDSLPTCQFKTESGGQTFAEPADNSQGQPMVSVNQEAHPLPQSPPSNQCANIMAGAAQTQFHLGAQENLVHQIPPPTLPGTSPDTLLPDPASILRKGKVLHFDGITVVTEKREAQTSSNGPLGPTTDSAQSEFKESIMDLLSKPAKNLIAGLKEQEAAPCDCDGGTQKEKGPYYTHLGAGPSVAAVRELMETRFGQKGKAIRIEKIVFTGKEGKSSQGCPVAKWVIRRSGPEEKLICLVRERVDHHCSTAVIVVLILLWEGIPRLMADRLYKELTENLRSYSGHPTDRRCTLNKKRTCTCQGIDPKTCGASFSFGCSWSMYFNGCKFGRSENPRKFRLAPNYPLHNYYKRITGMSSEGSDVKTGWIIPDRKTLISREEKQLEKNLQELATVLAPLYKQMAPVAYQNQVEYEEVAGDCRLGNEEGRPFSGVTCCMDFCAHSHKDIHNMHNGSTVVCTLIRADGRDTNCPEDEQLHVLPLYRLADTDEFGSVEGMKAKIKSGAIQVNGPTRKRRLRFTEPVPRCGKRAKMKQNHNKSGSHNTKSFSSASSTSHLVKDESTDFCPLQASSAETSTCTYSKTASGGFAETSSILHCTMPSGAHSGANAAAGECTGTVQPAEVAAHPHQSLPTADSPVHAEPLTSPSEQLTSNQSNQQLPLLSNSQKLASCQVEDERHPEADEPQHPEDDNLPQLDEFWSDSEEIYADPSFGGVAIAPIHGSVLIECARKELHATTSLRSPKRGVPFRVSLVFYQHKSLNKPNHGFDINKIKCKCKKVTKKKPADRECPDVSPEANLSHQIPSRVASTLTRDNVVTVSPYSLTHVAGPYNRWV

Target: Myc-HDAC1 (UniProt Q13547)
Experiment: co-IP; HEK293T cells co-transfected with Ty1-Tet1 WT or Ty1-Tet1deltaCD and Myc-HDAC1; lysed in RIPA buffer with protease inhibitors; antibody overnight, protein A/G PLUS-Agarose 2 h, washed five times with lysis buffer and once with PBS; western blot; which protein was precipitated not given

- binding: binds
Substance: Ty1-Tet1 WT (from UniProt Q3URK3 1-2039) (enzyme)
